Data: PubChem BioAssay AID248 (DTP/NCI, 2004)
The list shows only some results of the screen, not a fair sample: it gathers tests that were run many times, whatever their T/C, doses with no T/C, and many T/C values between a quarter and a half above the control. Further doses and runs are listed elsewhere. T/C: endpoint of the treated group in % of that of the vehicle group. Some entries give survivors of the animals treated and no T/C: the source holds a T/C of zero for them, seemingly a mark for toxic or unscored doses. Some survivor counts are full or nearly so, which does not show that the dose was tolerated: survival well below the control is almost never listed, so the zero probably covers shortened survival too. Counts of survivors are from the toxicity check (mostly the fifth day) where no day follows; animals may have died later. Schedule codes are those of the source, taken here to give the interval after Q, in days (D) or hours (H), and the number of doses after X. Some doses were run more than once; their values stand side by side, smallest first. Some schedule codes hold Z or #, which are not explained here. Where survival is the endpoint, this PubChem deposit counts one and a half times the control or more as active, and values a quarter to a half above the control carry no call in these data; other NCI protocols may use other cut-offs. Brackets with × stand for listed records that agree.

Test system: L1210 leukemia ip in BDF1 mice, survival T/C
Experiment: NCI In Vivo Anticancer Drug Screen. Data for tumor model L1210 Leukemia (intraperitoneal) in B6D2F1 (BDF1) mice
Conditions: T/C endpoint: mean survival time, higher T/C = longer survival
[1] = dose: 400.0 mg/kg/injection, schedule: Q04DX003 (ip), vehicle: Klucel (hydroxypropylcellulose) (HPC)
[2] = dose: 200.0 mg/kg/injection, schedule: Q01DX009 (ip), vehicle: Klucel (hydroxypropylcellulose) (HPC)
[3] = dose: 100.0 mg/kg/injection, schedule: Q01DX009 (ip), vehicle: saline
[4] = dose: 200.0 mg/kg/injection, schedule: Q01DX009 (ip), vehicle: saline
[5] = dose: 400.0 mg/kg/injection, schedule: Q01DX009 (ip), vehicle: saline
[6] = dose: 400.0 mg/kg/injection, schedule: Q01DX009 (ip), vehicle: saline with Tween-80
[7] = dose: 100.0 mg/kg/injection, schedule: Q04DX003 (ip), vehicle: saline with Tween-80
[8] = dose: 400.0 mg/kg/injection, schedule: Q04DX003 (ip), vehicle: saline with Tween-80

OC1(C#CC2(O)CCCCC2)CCCCC1
survivor count [1]: 6 of 6

O=C(COc1cccc(Cl)c1)Nc1cccnc1
survivor count (dose: 50.0 mg/kg/injection, schedule: Q01DX009 (ip), vehicle: Klucel (hydroxypropylcellulose) (HPC)): 6 of 6 | survivor count (dose: 100.0 mg/kg/injection, schedule: Q01DX009 (ip), vehicle: Klucel (hydroxypropylcellulose) (HPC)): 3 of 6 and 6 of 6 | survivor count [2]: 2 of 6 and 4 of 6 | survivor count [1]: 0 of 6

CN=C(NC)c1ccc(NC(=O)Nc2ccc(C)c(NC(=O)Nc3ccc(C(=NC)NC)cc3)c2)cc1
survivor count (dose: 36.0 mg/kg/injection, schedule: Q01DX Z (ip), vehicle: water): 0 of 6

CCCC/C=C/Br
survivor count (dose: 400.0 mg/kg/injection, schedule: Q01DX009 (ip), vehicle: acetone): 0 of 6

CC(C)CCCC(C)C1CCC2C3CC(O)C4=CC(O)CCC4(C)C3CCC12C (stereo not drawn)
survivor count (dose: 300.0 mg/kg/injection, schedule: Q01DX001 (ip), vehicle: other): 2 of 6

CN(C)CCC(O)(Cc1ccccc1)c1ccccc1 (stereo not drawn)
survivor count [2]: 0 of 6 | survivor count [1]: 0 of 6

CCCCCCCC[As](C)(=O)O
survivor count (dose: 12.5 mg/kg/injection, schedule: Q01DX009 (ip), vehicle: saline with Tween-80): 1 of 3 | survivor count (dose: 25.0 mg/kg/injection, schedule: Q01DX009 (ip), vehicle: saline with Tween-80): 0 of 3 and 1 of 3 | survivor count (dose: 50.0 mg/kg/injection, schedule: Q01DX009 (ip), vehicle: saline with Tween-80): 1 of 3 | survivor count (dose: 100.0 mg/kg/injection, schedule: Q01DX009 (ip), vehicle: saline with Tween-80): 0 of 3 | survivor count [3]: 0 of 6 | survivor count [4]: 0 of 6 | survivor count [5]: 0 of 6

C=CCCCCCCCCO
survivor count (dose: 400.0 mg/kg/injection, schedule: Q01DX001 (ip), vehicle: saline): 0 of 4

Cc1cc(N2C(=O)CSC2=S)ccc1Br
survivor count [6]: 4 of 6

CCOC(=O)c1ccc(NC(=O)Nc2cccc3c(O)cccc23)cc1
survivor count [7]: 6 of 6 | survivor count (dose: 400.0 mg/kg/injection, schedule: Q01DX001 (ip), vehicle: saline with Tween-80): 6 of 6 | survivor count [8]: 6 of 6

O=C1NC(=O)C([N+](=O)[O-])C(=O)N1
survivor count (dose: 100.0 mg/kg/injection, schedule: Q04DX003 (ip), vehicle: saline): 4 of 6

NC(N)=Nc1ccc(C(=O)O)cc1
survivor count [6]: 5 of 6

O=C1OCC/C1=C\C1CC=CCC1 (stereo not drawn)
T/C [7]: 138 % of control | T/C (dose: 200.0 mg/kg/injection, schedule: Q04DX003 (ip), vehicle: saline with Tween-80): 134 % of control | survivor count [8]: 2 of 6

CC(=O)OCc1c(O)c2c(c(O)c1COC(C)=O)C(=O)C=CC2=O
survivor count (dose: 25.0 mg/kg/injection, schedule: Q01DX009 (ip), vehicle: saline): 4 of 6 | survivor count (dose: 50.0 mg/kg/injection, schedule: Q01DX009 (ip), vehicle: saline): 3 of 6 | survivor count [3]: 0 of 6 | survivor count [4]: 0 of 6 | survivor count [5]: 0 of 6

N/C(=N\N=C\c1ccc(-c2ccccc2)cc1)N[N+](=O)[O-]
survivor count (dose: 400.0 mg/kg/injection, schedule: Q01DX001 (ip), vehicle: carboxymethylcellulose (CMC)): 2 of 4

O=C(COc1ccc(Cl)cc1Cl)OC(=O)COc1ccc(Cl)cc1Cl
T/C (dose: 50.0 mg/kg/injection, schedule: Q01DX009 (ip), vehicle: carboxymethylcellulose (CMC)): 97 (2×), 98, 100 % of control | survivor count (dose: 100.0 mg/kg/injection, schedule: Q01DX009 (ip), vehicle: carboxymethylcellulose (CMC)): 3 of 3 | survivor count (dose: 200.0 mg/kg/injection, schedule: Q01DX009 (ip), vehicle: carboxymethylcellulose (CMC)): 0 of 3 and 5 of 6 | survivor count (dose: 200.0 mg/kg/injection, schedule: Q04DX003 (ip), vehicle: carboxymethylcellulose (CMC)): 3 of 6 | survivor count (dose: 400.0 mg/kg/injection, schedule: Q04DX002 (ip), vehicle: carboxymethylcellulose (CMC)): 0 of 3 and 5 of 6

COc1cc2c(cc1OC)C(C)=NCC2
survivor count [3]: 2 of 6 | survivor count (dose: 200.0 mg/kg/injection, schedule: Q01DX001 (ip), vehicle: saline): 0 of 6

O=C1C=CC(=O)c2c(O)c(CO)c(CO)c(O)c21
survivor count (dose: 3.12 mg/kg/injection, schedule: Q01DX009 (ip), vehicle: water): 1 of 6 | survivor count (dose: 6.25 mg/kg/injection, schedule: Q01DX009 (ip), vehicle: water): 1 of 6 | survivor count (dose: 12.5 mg/kg/injection, schedule: Q01DX009 (ip), vehicle: water): 0 of 6 | survivor count (dose: 25.0 mg/kg/injection, schedule: Q01DX009 (ip), vehicle: water): 2 of 6 | survivor count (dose: 50.0 mg/kg/injection, schedule: Q01DX009 (ip), vehicle: water): 0 of 6 | survivor count (dose: 100.0 mg/kg/injection, schedule: Q01DX009 (ip), vehicle: water): 0 of 6 | survivor count (dose: 200.0 mg/kg/injection, schedule: Q01DX009 (ip), vehicle: water): 0 of 6 | survivor count (dose: 400.0 mg/kg/injection, schedule: Q01DX009 (ip), vehicle: water): 0 of 6

S=c1cccc[nH]1.[Pb]
survivor count (dose: 400.0 mg/kg/injection, schedule: Q04DX002 (ip), vehicle: gum acacia): 0 of 3

S=C(Nc1ccccc1)N(C1CCCCC1)C1CCCCC1
T/C (dose: 177.0 mg/kg/injection, schedule: Q01DX009 (ip), vehicle: saline with Tween-80): 125 % of control | T/C (dose: 266.0 mg/kg/injection, schedule: Q01DX009 (ip), vehicle: saline with Tween-80): 127 % of control | survivor count (dose: 600.0 mg/kg/injection, schedule: Q01DX009 (ip), vehicle: saline with Tween-80): 1 of 6

Cc1ccc(Cl)cc1NC(=O)Nc1ccccc1Cl
survivor count (dose: 400.0 mg/kg/injection, schedule: Q01DX009 (ip), vehicle: Klucel (hydroxypropylcellulose) (HPC)): 2 of 6

OC(CC(O)(C(F)(F)F)C(F)(F)F)c1cccc(C(F)(F)F)c1 (stereo not drawn)
T/C (dose: 200.0 mg/kg/injection, schedule: Q04DX003 (ip), vehicle: other): 128 % of control

Cc1c[n+](Cc2ccccc2)cc(C)n1
survivor count (dose: 300.0 mg/kg/injection, schedule: Q01DX001 (ip), vehicle: saline): 0 of 6

CCC(O)(CC(=O)O)c1ccccc1 (stereo not drawn)
survivor count [6]: 1 of 6

O=NN(CCCl)C(=O)NC1CCC(CC(=O)O)CC1 (stereo not drawn)
T/C (dose: 8.0 mg/kg/injection, schedule: Q01DX001 (ip), vehicle: Klucel (hydroxypropylcellulose) (HPC)): 144 % of control | T/C (dose: 10.0 mg/kg/injection, schedule: Q01DX001 (ip), vehicle: carboxymethylcellulose (CMC)): 135 and 142 % of control | survivor count (dose: 90.0 mg/kg/injection, schedule: Q01DX001 (ip), vehicle: Klucel (hydroxypropylcellulose) (HPC)): 9 of 10 and 10 of 10 | survivor count (dose: 90.0 mg/kg/injection, schedule: Q01DX001 (ip), vehicle: carboxymethylcellulose (CMC)): 9 of 10 | survivor count (dose: 133.0 mg/kg/injection, schedule: Q01DX001 (ip), vehicle: Klucel (hydroxypropylcellulose) (HPC)): 4 of 10 | survivor count (dose: 200.0 mg/kg/injection, schedule: Q01DX001 (ip), vehicle: Klucel (hydroxypropylcellulose) (HPC)): 0 of 10 | survivor count (dose: 300.0 mg/kg/injection, schedule: Q01DX001 (ip), vehicle: Klucel (hydroxypropylcellulose) (HPC)): 0 of 10

COc1ccc2nccc(/C=C/CC3CCN(C(C)=O)CC3)c2c1
survivor count (dose: 200.0 mg/kg/injection, schedule: Q04DX003 (ip), vehicle: saline): 3 of 6 | survivor count (dose: 400.0 mg/kg/injection, schedule: Q04DX003 (ip), vehicle: saline): 1 of 6

Cn1c(CCN=C(N)CSS(=O)(=O)O)nc2ccccc21
survivor count (dose: 100.0 mg/kg/injection, schedule: Q04DX002 (ip), vehicle: Klucel (hydroxypropylcellulose) (HPC)): 0 of 3 | survivor count (dose: 400.0 mg/kg/injection, schedule: Q04DX002 (ip), vehicle: Klucel (hydroxypropylcellulose) (HPC)): 0 of 3

CCCCCCCCC(=O)NCc1ccc(OC)cc1
survivor count (dose: 100.0 mg/kg/injection, schedule: Q01DX009 (ip), vehicle: other): 6 of 6
